Data taken from PMC7442787.
These are yes or no findings as the source states them, for the method shown. In cells and extracts the contact can be indirect. Here binding means that the protein was enriched with, or labelled near, the bait; the list need not be complete. Sequences can lack the tags named with a protein. Values belong to the molecule of their own block, whether it stands above or below them.

The chains behind the UniProt entries cited, without tags or fusion partners.
UniProt P53996: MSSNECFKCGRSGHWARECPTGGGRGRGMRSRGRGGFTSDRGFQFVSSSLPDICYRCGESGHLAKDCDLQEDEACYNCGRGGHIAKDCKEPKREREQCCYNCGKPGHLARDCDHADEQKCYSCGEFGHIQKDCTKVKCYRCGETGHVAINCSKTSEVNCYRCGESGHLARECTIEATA

Biological target: T1, Suppressor of fused (Sufu), endogenous (mouse (endogenous in NIH3T3 and MEFs)) (UniProt Q9Z0P7)
T1 sequence: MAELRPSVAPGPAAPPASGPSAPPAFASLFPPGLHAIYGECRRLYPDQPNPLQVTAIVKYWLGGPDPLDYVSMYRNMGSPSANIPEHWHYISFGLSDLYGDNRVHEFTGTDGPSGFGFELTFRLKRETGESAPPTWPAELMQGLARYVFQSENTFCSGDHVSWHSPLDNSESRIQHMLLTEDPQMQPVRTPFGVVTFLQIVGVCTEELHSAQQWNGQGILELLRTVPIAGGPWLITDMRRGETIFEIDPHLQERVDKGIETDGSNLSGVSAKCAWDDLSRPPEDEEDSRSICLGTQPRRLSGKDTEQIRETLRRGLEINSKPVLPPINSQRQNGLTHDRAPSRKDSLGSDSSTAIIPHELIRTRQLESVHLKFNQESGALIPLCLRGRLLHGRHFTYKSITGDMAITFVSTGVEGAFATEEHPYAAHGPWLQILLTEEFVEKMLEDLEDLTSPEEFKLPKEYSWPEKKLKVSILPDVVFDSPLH
Assay: affinity purification with mass spectrometry; endogenous Sufu immunoprecipitated with anti-Sufu antibodies from NIH3T3 cells treated with Shh- or control-conditioned medium for 24 h; eluate analysed by gel-free LC-MS/MS

binding: binds
Molecule: zinc-finger protein CNBP, endogenous (from UniProt P53996 1-178)

binding: binds
B1: Protein phosphatase 4 regulatory subunit 2 (Ppp4r2), endogenous (protein, UniProt Q0VGB7 1-417)
chain: MDVERLQEALKDFEKRGKKEVCPVLDQFLCHVAKTGETMIQWSQFKGYFIFKLEKVMDDFRTSAPEPRGPPNPNVEYIPFDEMKERILKIVTGFNGIPFTIQRLCELLTDPRRNYTGTDKFLRGVEKNVMVVSCVCPSSEKNNSNSLNRMNGVMFPGNSPNYTDRSNINGPGTPRPLNRPKLSLSAPLTTNGLPESTDSKDSELQLSEEKGHSDSSASESEVSLLSPVKNKHPDEDAVESEEHEVKRLKFDKEGDVRETASQTVSGEVSSVRAEETETAAPPPDKDRESRTRQHCTEEEEEEEEEEEEEEEESFMTPREMVPERKNQEKESDDALTVNEETSEESHQMEGSGVSPAQTDSTSERSDSAGASRSGSDCLETQESGGPPSSKTGESVSVPSSMESEEATEVTDDPMEQD
